# The other results are listed elsewhere or left out.
# Assays:
# Test in all cases: glycan array binding signal (z-score within array); higher = stronger binding
# Settings in all cases: glycan notation: IUPAC condensed, linker removed
# [1] = target: Gal(b1-3)GlcNAc(b1-6)[Gal(b1-3)]GalNAc
# In short: (§1)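 Glycan array binding is given as a within-array Z-score, which can be read as non-binding when negative. The arrays, 3228 of them, came from the Consortium for Functional Glycomics database and were retained only where the protein sequence was available. Z-scores were averaged across arrays of the same protein sequence at different concentrations or buffers and across linkers.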
# [2] = target: Gal(b1-3)GlcNAc6S
# In short: as §1
# [3] = target: Gal(b1-3)[Fuc(a1-4)]GlcNAc
# In short: as §1
# [4] = target: Gal(b1-3)[Fuc(a1-4)]GlcNAc(b1-2)Man
# In short: as §1
# [5] = target: Gal(b1-3)[Fuc(a1-4)]GlcNAc(b1-2)Man(a1-3)[Gal(b1-3)[Fuc(a1-4)]GlcNAc(b1-2)Man(a1-6)]Man(b1-4)GlcNAc(b1-4)[Fuc(a1-6)]GlcNAc
# In short: as §1
# [6] = target: Gal(b1-3)[Fuc(a1-4)]GlcNAc(b1-3)Gal(b1-3)[Fuc(a1-4)]GlcNAc
# In short: as §1
# [7] = target: Gal(b1-3)[Fuc(a1-4)]GlcNAc(b1-3)Gal(b1-4)[Fuc(a1-3)]GlcNAc
# In short: as §1
# [8] = target: Gal(b1-3)[Fuc(a1-4)]GlcNAc(b1-6)GalNAc
# In short: as §1
# [9] = target: Gal(b1-3)[GlcNAc(b1-6)]GalNAc
# In short: as §1
# [10] = target: Gal(b1-3)[Neu5Ac(a2-6)]GalNAc
# In short: as §1
# [11] = target: Gal(b1-3)[Neu5Ac(a2-6)]GlcNAc(b1-4)Gal(b1-4)Glc
# In short: as §1
# [12] = target: Gal(b1-3)[Neu5Ac(b2-6)]GalNAc
# In short: as §1
# [13] = target: Gal(b1-4)Gal
# In short: as §1
# [14] = target: Gal(b1-4)GalNAc(a1-3)[Fuc(a1-2)]Gal(b1-4)GlcNAc
# In short: as §1
# [15] = target: Gal(b1-4)GalNAc(b1-3)[Fuc(a1-2)]Gal(b1-4)GlcNAc
# In short: as §1
# [16] = target: Gal(b1-4)Glc
# In short: as §1
# [17] = target: Gal(b1-4)Glc6S
# In short: as §1
# [18] = target: Gal(b1-4)GlcNAc
# In short: as §1
# [19] = target: Gal(b1-4)GlcNAc(a1-6)Gal(b1-4)GlcNAc
# In short: as §1
# [20] = target: Gal(b1-4)GlcNAc(b1-2)Man
# In short: as §1
# [21] = target: Gal(b1-4)GlcNAc(b1-2)Man(a1-3)Man(b1-4)GlcNAc(b1-4)GlcNAc
# In short: as §1
# [22] = target: Gal(b1-4)GlcNAc(b1-2)Man(a1-3)[Gal(b1-4)GlcNAc(b1-2)Man(a1-6)]Man(b1-4)GlcNAc(b1-4)GlcNAc
# In short: as §1
# [23] = target: Gal(b1-4)GlcNAc(b1-2)Man(a1-3)[Gal(b1-4)GlcNAc(b1-2)Man(a1-6)]Man(b1-4)GlcNAc(b1-4)[Fuc(a1-6)]GlcNAc
# In short: as §1
# [24] = target: Gal(b1-4)GlcNAc(b1-2)Man(a1-3)[Gal(b1-4)GlcNAc(b1-2)Man(a1-6)][Gal(b1-4)GlcNAc(b1-4)]Man(b1-4)GlcNAc(b1-4)[Fuc(a1-6)]GlcNAc
# In short: as §1
# [25] = target: Gal(b1-4)GlcNAc(b1-2)Man(a1-3)[Gal(b1-4)GlcNAc(b1-2)Man(a1-6)][GlcNAc(b1-4)]Man(b1-4)GlcNAc(b1-4)[Fuc(a1-6)]GlcNAc
# In short: as §1
# [26] = target: Gal(b1-4)GlcNAc(b1-2)Man(a1-3)[GlcNAc(b1-2)Man(a1-6)]Man(b1-4)GlcNAc(b1-4)GlcNAc
# In short: as §1
# [27] = target: Gal(b1-4)GlcNAc(b1-2)Man(a1-3)[GlcNAc(b1-4)][Gal(b1-4)GlcNAc(b1-2)Man(a1-6)]Man(b1-4)GlcNAc(b1-4)GlcNAc
# In short: as §1
# [28] = target: Gal(b1-4)GlcNAc(b1-2)Man(a1-3)[Man(a1-6)]Man(b1-4)GlcNAc(b1-4)GlcNAc
# In short: as §1
# [29] = target: Gal(b1-4)GlcNAc(b1-2)Man(a1-6)Man(b1-4)GlcNAc(b1-4)GlcNAc
# In short: as §1
# [30] = target: Gal(b1-4)GlcNAc(b1-2)Man(a1-6)[GlcNAc(b1-2)Man(a1-3)]Man(b1-4)GlcNAc(b1-4)GlcNAc
# In short: as §1
# [31] = target: Gal(b1-4)GlcNAc(b1-2)Man(a1-6)[Man(a1-3)]Man(b1-4)GlcNAc(b1-4)GlcNAc
# In short: as §1
# [32] = target: Gal(b1-4)GlcNAc(b1-2)[Gal(b1-4)GlcNAc(b1-4)]Man(a1-3)[Gal(b1-4)GlcNAc(b1-2)Man(a1-6)]Man(b1-4)GlcNAc(b1-4)GlcNAc
# In short: as §1
# [33] = target: Gal(b1-4)GlcNAc(b1-2)[Gal(b1-4)GlcNAc(b1-4)]Man(a1-3)[Gal(b1-4)GlcNAc(b1-2)[Gal(b1-4)GlcNAc(b1-6)]Man(a1-6)]Man(b1-4)GlcNAc(b1-4)GlcNAc
# In short: as §1
# [34] = target: Gal(b1-4)GlcNAc(b1-2)[Gal(b1-4)GlcNAc(b1-4)]Man(a1-3)[GlcNAc(b1-4)][Gal(b1-4)GlcNAc(b1-2)Man(a1-6)]Man(b1-4)GlcNAc(b1-4)GlcNAc
# In short: as §1
# [35] = target: Gal(b1-4)GlcNAc(b1-2)[Gal(b1-4)GlcNAc(b1-4)]Man(a1-3)[GlcNAc(b1-4)][Gal(b1-4)GlcNAc(b1-2)[Gal(b1-4)GlcNAc(b1-6)]Man(a1-6)]Man(b1-4)GlcNAc(b1-4)GlcNAc
# In short: as §1
# [36] = target: Gal(b1-4)GlcNAc(b1-2)[Gal(b1-4)GlcNAc(b1-6)]Man(a1-6)[Gal(b1-4)GlcNAc(b1-2)Man(a1-3)]Man(b1-4)GlcNAc(b1-4)GlcNAc
# In short: as §1
# [37] = target: Gal(b1-4)GlcNAc(b1-2)[Gal(b1-4)GlcNAc(b1-6)]Man(a1-6)[Gal(b1-4)GlcNAc(b1-2)Man(a1-3)]Man(b1-4)GlcNAc(b1-4)[Fuc(a1-6)]GlcNAc
# In short: as §1
# [38] = target: Gal(b1-4)GlcNAc(b1-2)[Gal(b1-4)GlcNAc(b1-6)]Man(a1-6)[GlcNAc(b1-4)][Gal(b1-4)GlcNAc(b1-2)Man(a1-3)]Man(b1-4)GlcNAc(b1-4)GlcNAc
# In short: as §1
# [39] = target: Gal(b1-4)GlcNAc(b1-2)[Gal(b1-4)GlcNAc(b1-6)]Man(a1-6)[GlcNAc(b1-4)][Gal(b1-4)GlcNAc(b1-2)[Gal(b1-4)GlcNAc(b1-4)]Man(a1-3)]Man(b1-4)GlcNAc(b1-4)[Fuc(a1-6)]GlcNAc
# In short: as §1
# [40] = target: Gal(b1-4)GlcNAc(b1-3)Gal(b1-3)GalNAc
# In short: as §1
# [41] = target: Gal(b1-4)GlcNAc(b1-3)Gal(b1-3)GlcNAc
# In short: as §1
# [42] = target: Gal(b1-4)GlcNAc(b1-3)Gal(b1-4)Glc
# In short: as §1
# [43] = target: Gal(b1-4)GlcNAc(b1-3)Gal(b1-4)GlcNAc
# In short: as §1
# [44] = target: Gal(b1-4)GlcNAc(b1-3)Gal(b1-4)GlcNAc(b1-2)Man(a1-3)[Gal(b1-4)GlcNAc(b1-3)Gal(b1-4)GlcNAc(b1-2)Man(a1-6)]Man(b1-4)GlcNAc(b1-4)GlcNAc
# In short: as §1
# [45] = target: Gal(b1-4)GlcNAc(b1-3)Gal(b1-4)GlcNAc(b1-2)Man(a1-3)[Gal(b1-4)GlcNAc(b1-3)Gal(b1-4)GlcNAc(b1-2)Man(a1-6)]Man(b1-4)GlcNAc(b1-4)[Fuc(a1-6)]GlcNAc
# In short: as §1
binder,measurement,setting,value
LlpB (Pseudomonas fluorescens) (protein) MGSSHHHHHHSSGLVPRGSHMASSGFRIILFNSANNGTAILPPRNCLVAGQYLESPSKRYKLILEADGNLRLYDNGVPIWVADSSVPYTYVDNRPNTNLVTCFYMQGSAFLVDRVGSRTWATIGDWIDGAADRAYLQVQDDGNVVVVDGVPRWARFGFTPAALPNRGVFYPDHGTGPLPSFPVWSWTF,glycan array binding signal (z-score),[1],-0.029
same,glycan array binding signal (z-score),[2],-0.915
same,glycan array binding signal (z-score),[3],-0.038
same,glycan array binding signal (z-score),[4],2.49
same,glycan array binding signal (z-score),[5],1.53
same,glycan array binding signal (z-score),[6],-1.29
same,glycan array binding signal (z-score),[7],-1.22
same,glycan array binding signal (z-score),[8],0.714
same,glycan array binding signal (z-score),[9],1.22
same,glycan array binding signal (z-score),[10],-0.167
same,glycan array binding signal (z-score),[11],-0.162
same,glycan array binding signal (z-score),[12],-0.814
same,glycan array binding signal (z-score),[13],0.36
same,glycan array binding signal (z-score),[14],-1.06
same,glycan array binding signal (z-score),[15],-0.887
same,glycan array binding signal (z-score),[16],-0.337
same,glycan array binding signal (z-score),[17],-0.442
same,glycan array binding signal (z-score),[18],0.117
same,glycan array binding signal (z-score),[19],-0.411
same,glycan array binding signal (z-score),[20],3.72
same,glycan array binding signal (z-score),[21],1.16
same,glycan array binding signal (z-score),[22],-1.33
same,glycan array binding signal (z-score),[23],-1.12
same,glycan array binding signal (z-score),[24],-1.71
same,glycan array binding signal (z-score),[25],-1.69
same,glycan array binding signal (z-score),[26],-1.02
same,glycan array binding signal (z-score),[27],-0.624
same,glycan array binding signal (z-score),[28],0.362
same,glycan array binding signal (z-score),[29],-0.158
same,glycan array binding signal (z-score),[30],-0.351
same,glycan array binding signal (z-score),[31],-0.481
same,glycan array binding signal (z-score),[32],-1.23
same,glycan array binding signal (z-score),[33],-0.308
same,glycan array binding signal (z-score),[34],-0.213
same,glycan array binding signal (z-score),[35],0.932
same,glycan array binding signal (z-score),[36],-0.828
same,glycan array binding signal (z-score),[37],1.11
same,glycan array binding signal (z-score),[38],-0.05
same,glycan array binding signal (z-score),[39],-1.73
same,glycan array binding signal (z-score),[40],-0.092
same,glycan array binding signal (z-score),[41],-0.608
same,glycan array binding signal (z-score),[42],-0.591
same,glycan array binding signal (z-score),[43],-1.25
same,glycan array binding signal (z-score),[44],0.719
same,glycan array binding signal (z-score),[45],2.2

# Looked up one by one from the list above (4):
binder,measurement,setting,value
LlpB (Pseudomonas fluorescens) (protein) MGSSHHHHHHSSGLVPRGSHMASSGFRIILFNSANNGTAILPPRNCLVAGQYLESPSKRYKLILEADGNLRLYDNGVPIWVADSSVPYTYVDNRPNTNLVTCFYMQGSAFLVDRVGSRTWATIGDWIDGAADRAYLQVQDDGNVVVVDGVPRWARFGFTPAALPNRGVFYPDHGTGPLPSFPVWSWTF,glycan array binding signal (z-score),[28],0.362
same,glycan array binding signal (z-score),[3],-0.038
same,glycan array binding signal (z-score),[30],-0.351
same,glycan array binding signal (z-score),[41],-0.608
